The results in this text go back to publication PMC9000022.

Amino acid sequences for entries named in this document (tags omitted).
UniProt O75821: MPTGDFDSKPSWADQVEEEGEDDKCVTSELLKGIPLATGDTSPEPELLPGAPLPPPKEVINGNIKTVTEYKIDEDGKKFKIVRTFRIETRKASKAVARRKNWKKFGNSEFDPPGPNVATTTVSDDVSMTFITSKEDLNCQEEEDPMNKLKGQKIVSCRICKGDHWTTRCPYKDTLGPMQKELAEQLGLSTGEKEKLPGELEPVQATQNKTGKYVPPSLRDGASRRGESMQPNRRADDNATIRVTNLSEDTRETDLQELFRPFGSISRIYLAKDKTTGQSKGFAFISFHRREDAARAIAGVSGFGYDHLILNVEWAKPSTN

The target in assay [1] is T1, chaperonin-containing T-complex protein-1 subunit 3 (CCT3) (human (endogenous in LUAD cell lines)) (UniProt P49368).
T1 sequence: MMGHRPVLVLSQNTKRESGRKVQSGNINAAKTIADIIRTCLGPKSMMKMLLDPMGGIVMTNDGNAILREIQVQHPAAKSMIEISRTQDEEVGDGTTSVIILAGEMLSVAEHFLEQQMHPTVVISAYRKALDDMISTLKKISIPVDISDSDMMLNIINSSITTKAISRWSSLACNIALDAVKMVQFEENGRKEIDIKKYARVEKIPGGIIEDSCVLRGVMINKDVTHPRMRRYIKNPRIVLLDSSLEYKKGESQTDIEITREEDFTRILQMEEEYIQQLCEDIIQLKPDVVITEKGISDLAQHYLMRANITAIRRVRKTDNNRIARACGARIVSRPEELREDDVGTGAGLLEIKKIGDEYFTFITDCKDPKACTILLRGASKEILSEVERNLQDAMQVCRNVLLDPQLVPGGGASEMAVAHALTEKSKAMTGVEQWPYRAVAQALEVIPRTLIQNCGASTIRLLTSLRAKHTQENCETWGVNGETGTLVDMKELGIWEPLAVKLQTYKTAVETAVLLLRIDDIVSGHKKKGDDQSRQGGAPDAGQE
Kind of assay: co-IP; LUAD cells lysed, incubated overnight at 4 °C with anti-CCT3 or EIF3G antibodies, then protein A-agarose 4 h at 4 °C; Western blot. For orientation: A western blot detects proteins with antibodies after separation by electrophoresis.

For a further assay, the target named is T2, recombinant CCT3 (rCCT3) (UniProt P49368).
T2 sequence: T1 sequence
Kind of assay: pull-down; rEIF3G and rCCT3 each covalently coupled to cyanogen bromide-activated matrix, blocked with glycine, incubated with rCCT3 or rEIF3G overnight at 4 °C; Western blot; both purified.

These are yes or no findings as the source states them, for the method shown. For some assays here: Binding seen in cells or lysates may run through a third protein. Some results given as binding are weak or reduced against the parent protein; the word gives no strength.

In the case of “eukaryotic translation initiation factor 3 subunit G (EIF3G) (from UniProt O75821 1-320)”, the binding result in assay [1] was “binds”.

As to “recombinant EIF3G (rEIF3G) (from UniProt O75821 1-320)”, in the assay with recombinant CCT3 (rCCT3), the binding result was “binds”.
